Measured values reported in publication PMC9340540.
No constants are given. Whether binding was seen depends on the method and setting. A result given as binding can be weak or reduced; the word gives no strength. For some assays here: Sequences can lack the tags named with a protein.

Tests used:
[1] = molecular target: T1, UFD-2 consensus sequence EEYDDVPE (C. elegans); experiment: peptide or protein array; PEPperPRINT microarrays of UFD-2 7- and 13-aa peptides (overlaps 6 and 12 aa); 6xHis::SUMO::CHN-1 incubated 16 h at 4°C; detected with anti-6xHis DyLight680; His::SUMO alone as control; both purified
T1 sequence (peptide): EEYDDVPE

[2] = molecular target: T2, UFD-2 consensus sequence … (C. elegans); experiment: as above
T2 sequence (peptide): EAKAELEEE

UFD-2 (C. elegans) [3] = molecular target: T3, UFD-2 (C. elegans) (UniProt Q09349); experiment: ELISA; competition: CHN-1 on immobilised UFD-2, titrated with increasing concentrations of HSP-1 or DAF-21; CHN-1 signal read; both purified
T3 sequence: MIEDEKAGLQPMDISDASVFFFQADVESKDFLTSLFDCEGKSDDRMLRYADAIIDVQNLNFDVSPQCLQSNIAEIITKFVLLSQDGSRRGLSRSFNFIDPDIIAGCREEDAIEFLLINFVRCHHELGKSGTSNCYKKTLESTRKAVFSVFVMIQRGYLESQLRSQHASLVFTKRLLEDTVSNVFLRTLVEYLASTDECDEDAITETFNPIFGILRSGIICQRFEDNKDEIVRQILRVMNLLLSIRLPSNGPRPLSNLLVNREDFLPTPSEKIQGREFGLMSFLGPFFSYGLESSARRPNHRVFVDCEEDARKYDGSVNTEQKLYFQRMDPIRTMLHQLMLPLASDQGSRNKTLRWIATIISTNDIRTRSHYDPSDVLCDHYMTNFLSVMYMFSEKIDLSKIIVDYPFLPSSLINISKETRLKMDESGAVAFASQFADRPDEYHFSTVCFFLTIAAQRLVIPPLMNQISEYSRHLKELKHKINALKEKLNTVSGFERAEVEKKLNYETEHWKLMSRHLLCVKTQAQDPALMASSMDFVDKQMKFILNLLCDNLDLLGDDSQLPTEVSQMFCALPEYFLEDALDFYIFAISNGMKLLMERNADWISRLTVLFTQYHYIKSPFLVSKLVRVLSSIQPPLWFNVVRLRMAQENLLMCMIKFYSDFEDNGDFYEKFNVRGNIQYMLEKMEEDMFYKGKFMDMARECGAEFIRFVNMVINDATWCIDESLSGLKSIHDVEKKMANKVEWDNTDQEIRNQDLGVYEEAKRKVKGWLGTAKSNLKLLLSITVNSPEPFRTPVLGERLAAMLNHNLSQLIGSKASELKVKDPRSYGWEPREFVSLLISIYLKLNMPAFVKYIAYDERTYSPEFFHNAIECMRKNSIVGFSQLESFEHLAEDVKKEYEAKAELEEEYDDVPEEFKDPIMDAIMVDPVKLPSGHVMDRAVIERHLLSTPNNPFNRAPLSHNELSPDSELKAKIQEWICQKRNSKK

[4] = molecular target: T4, 6xHis::UFD-2 (C. elegans) (UniProt Q09349); experiment: HDX-MS; CHN-1 (3 mg/ml) alone or mixed 1:1 with His-tagged UFD-2 (2 mg/ml), 25°C 30 min; exchange 10 s, 1 min, 5 min, 25 min, 2 h in 10 mM HEPES, 150 mM NaCl, D2O, pH 8.0, room temperature; both purified
T4 sequence: T3 sequence

UFD-2 (C. elegans) [5] = molecular target: T3, UFD-2 (C. elegans); experiment: ELISA; UFD-2, His-tagged DAF-21 or His-tagged HSP-1 immobilised at 2 μg/ml; increasing CHN-1 concentrations, 1 h at 16°C; detected with anti-CHN-1; both purified

binding [1] | binding [2] | binding (UFD-2 (C. elegans) [3]) | binding [4] | binding (UFD-2 (C. elegans) [5]) | Substance
binds | binds |  |  |  | 6xHis::SUMO::CHN-1 (C. elegans) (enzyme)
 |  | binds | binds | binds | CHN-1 (C. elegans) (enzyme)
